3 sequences from patent US5741673 can be followed below.

By UniProt entry, the sequences of proteins in these tests, tags left out. Where a name states a change or a piece, a line headed by the entry shows the natural chain unless it says otherwise.
UniProt P52947: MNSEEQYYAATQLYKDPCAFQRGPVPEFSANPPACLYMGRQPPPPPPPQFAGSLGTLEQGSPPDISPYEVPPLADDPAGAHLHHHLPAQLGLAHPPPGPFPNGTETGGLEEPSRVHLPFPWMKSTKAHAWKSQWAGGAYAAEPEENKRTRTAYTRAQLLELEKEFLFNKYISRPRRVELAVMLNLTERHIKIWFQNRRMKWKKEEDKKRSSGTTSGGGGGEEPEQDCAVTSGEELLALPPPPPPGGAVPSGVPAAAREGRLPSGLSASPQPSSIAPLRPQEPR

The target in data set [1] is ITF-1 endogenous in Tu-6 nuclear extract (complexes C1 and C2) (rat) (UniProt P52947). Nature of the data set: EMSA. The following applies: Tu-6 extract; C1 and C2 abolished by anti-ITF-1 antiserum; protein in an extract.
The target is the same in data set [2]. Nature of the data set: competition with a labelled probe. The following applies: protein in an extract.

Results from cells or extracts need not show a direct contact. For part of these data: Negatives hold for the conditions tested.

Consider “GATCTCAGTAATAATCATGCAG (double strand) [somatostatin TSE II]”, for which, in data set [1], the binding result is reported as “binds”.

For “TTGCGAGGCTAATGGTGCG (double strand) [somatostatin TSE I]”, in data set [2] (wild-type TSE I displaced C1 and C2 from TSE II probe), the binding result is listed as “binds”. Turning to “GATCTCAGGCCGGCCGCATGCAC (double strand) [mutant TSE II]”, in data set [2] (mutant TSE II did not displace C1 and C2, variant of somatostatin TSE II), the binding result is “no binding”.
